Results from US11845084B2, “Microchip high density hanging drop three-dimension culture platform” (The Board of Trustees of the University of Illinois, priority 2020, dated 2023).
At least one structure is not confirmed: it was looked up by name or label, or the drawing left a doubt.

System: PDX microcancers (GBM8 patient-derived xenograft glioblastoma cells)
Assay: On-chip drug testing of PDX microcancer spheroids in microchip hanging drop 3D culture
Type: cell-based, human
Details: PDX compared with LN229 microcancers

## Cc1nc(Nc2ncc(C(=O)Nc3c(C)cccc3Cl)s2)cc(N2CCN(CCO)CC2)n1 [Dasatinib]
  overall response in terms of normalized cell death: lower for PDX
